This passage reports binding results from PMC7445300.

By UniProt entry, the sequences of proteins in these tests, tags left out.
UniProt P26358: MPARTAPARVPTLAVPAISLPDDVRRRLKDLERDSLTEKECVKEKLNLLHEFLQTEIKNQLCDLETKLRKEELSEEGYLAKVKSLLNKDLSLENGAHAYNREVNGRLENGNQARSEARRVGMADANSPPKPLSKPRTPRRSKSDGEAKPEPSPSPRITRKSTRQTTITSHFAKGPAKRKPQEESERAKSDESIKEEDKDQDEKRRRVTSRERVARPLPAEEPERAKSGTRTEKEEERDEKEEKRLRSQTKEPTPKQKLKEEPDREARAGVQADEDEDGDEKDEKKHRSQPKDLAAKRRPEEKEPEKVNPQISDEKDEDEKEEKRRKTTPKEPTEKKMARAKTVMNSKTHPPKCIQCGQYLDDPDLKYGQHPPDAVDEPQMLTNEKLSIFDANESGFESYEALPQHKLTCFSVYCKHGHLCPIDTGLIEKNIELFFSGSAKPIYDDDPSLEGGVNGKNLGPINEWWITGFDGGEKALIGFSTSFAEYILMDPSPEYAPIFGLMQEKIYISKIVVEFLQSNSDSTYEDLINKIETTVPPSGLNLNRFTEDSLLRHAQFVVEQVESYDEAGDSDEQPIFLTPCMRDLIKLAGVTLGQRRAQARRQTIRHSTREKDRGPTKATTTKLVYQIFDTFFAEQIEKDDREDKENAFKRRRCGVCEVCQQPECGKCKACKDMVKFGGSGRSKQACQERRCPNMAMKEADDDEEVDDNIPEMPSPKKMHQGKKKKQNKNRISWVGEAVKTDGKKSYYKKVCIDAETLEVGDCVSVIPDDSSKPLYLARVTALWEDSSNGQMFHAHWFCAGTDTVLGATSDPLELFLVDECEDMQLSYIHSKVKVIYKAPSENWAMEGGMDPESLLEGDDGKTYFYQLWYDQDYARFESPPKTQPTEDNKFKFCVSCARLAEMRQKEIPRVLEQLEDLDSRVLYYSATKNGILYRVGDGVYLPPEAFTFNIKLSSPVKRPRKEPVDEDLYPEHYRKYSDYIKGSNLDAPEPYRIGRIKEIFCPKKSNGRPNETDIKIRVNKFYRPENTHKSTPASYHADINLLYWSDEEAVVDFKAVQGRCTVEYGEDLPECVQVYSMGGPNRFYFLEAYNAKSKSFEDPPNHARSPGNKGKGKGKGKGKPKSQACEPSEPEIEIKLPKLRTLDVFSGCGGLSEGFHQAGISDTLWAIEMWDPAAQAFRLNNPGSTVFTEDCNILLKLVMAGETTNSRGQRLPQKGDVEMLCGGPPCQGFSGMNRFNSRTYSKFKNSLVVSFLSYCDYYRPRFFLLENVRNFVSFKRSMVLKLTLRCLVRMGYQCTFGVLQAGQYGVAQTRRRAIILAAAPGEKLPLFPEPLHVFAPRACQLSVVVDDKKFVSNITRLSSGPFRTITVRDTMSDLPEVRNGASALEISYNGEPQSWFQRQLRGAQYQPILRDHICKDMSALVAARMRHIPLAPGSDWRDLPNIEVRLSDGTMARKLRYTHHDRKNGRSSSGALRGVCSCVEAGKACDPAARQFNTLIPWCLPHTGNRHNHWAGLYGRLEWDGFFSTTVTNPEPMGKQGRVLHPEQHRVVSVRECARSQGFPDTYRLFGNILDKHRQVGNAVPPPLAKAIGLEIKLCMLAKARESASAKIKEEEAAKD
UniProt Q93009: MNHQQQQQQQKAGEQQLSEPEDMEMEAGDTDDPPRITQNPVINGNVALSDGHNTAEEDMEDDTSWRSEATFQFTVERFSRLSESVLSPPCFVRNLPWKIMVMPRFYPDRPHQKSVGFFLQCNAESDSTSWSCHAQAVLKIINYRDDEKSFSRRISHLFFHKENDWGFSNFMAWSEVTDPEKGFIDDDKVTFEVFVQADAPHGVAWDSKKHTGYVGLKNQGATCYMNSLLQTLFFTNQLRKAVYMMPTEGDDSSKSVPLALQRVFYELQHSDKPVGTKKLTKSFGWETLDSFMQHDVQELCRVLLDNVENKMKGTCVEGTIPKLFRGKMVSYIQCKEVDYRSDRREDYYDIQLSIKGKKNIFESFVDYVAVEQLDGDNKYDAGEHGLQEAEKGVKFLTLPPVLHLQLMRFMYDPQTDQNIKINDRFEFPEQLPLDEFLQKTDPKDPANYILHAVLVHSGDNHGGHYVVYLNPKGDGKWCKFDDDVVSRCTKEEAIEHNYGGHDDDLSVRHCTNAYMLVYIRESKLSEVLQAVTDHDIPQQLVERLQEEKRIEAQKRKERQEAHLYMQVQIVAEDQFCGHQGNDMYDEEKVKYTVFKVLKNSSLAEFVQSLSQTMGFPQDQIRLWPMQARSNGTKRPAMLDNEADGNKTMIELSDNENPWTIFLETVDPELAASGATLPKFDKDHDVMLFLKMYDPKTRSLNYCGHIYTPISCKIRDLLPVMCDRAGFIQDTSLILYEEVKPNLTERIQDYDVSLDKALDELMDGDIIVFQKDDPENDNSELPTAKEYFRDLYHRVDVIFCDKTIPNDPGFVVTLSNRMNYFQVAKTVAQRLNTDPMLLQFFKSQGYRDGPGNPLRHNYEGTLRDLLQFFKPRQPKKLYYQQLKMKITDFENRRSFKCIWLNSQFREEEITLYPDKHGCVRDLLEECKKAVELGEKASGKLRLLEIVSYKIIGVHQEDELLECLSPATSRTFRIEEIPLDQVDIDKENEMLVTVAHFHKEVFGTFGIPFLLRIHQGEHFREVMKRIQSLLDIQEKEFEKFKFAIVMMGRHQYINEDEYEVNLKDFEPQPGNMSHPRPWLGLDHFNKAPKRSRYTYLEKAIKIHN

One assay has as its target DNMT1 (UniProt P26358). Put plainly: co-IP; plasmids co-transfected into HEK293T cells for 48 h; lysis in 25 mM Tris-HCl pH 8.0, 150 mM NaCl, 1% NP-40, 2 mM EDTA, 1 mM DTT; anti-FLAG M2-affinity beads 3 h at 4 °C; WB.
The next assay addresses T1, UHRF1 (UniProt Q96T88).
T1 sequence: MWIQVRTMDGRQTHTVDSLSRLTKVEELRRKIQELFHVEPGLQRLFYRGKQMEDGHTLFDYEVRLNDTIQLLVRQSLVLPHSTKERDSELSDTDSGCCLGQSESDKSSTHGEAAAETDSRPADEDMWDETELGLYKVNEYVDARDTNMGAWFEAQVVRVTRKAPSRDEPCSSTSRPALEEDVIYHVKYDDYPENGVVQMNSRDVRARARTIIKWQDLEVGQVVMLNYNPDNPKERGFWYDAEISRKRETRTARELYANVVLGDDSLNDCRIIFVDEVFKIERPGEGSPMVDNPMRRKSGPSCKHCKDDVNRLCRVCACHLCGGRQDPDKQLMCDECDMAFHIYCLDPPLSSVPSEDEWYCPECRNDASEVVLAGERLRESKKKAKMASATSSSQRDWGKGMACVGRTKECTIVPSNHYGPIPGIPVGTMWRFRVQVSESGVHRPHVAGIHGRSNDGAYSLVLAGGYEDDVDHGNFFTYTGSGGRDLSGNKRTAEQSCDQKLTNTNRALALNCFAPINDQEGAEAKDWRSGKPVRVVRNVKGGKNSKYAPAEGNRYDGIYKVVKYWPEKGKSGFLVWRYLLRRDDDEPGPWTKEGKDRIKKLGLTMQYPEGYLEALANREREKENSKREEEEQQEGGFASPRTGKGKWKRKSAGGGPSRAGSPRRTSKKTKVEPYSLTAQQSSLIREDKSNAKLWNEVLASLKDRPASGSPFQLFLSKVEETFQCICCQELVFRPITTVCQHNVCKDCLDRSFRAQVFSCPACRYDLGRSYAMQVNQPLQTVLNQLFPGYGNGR
Described as above.

These are yes or no findings as the source states them, for the method shown. In cells and extracts the contact can be indirect. Some entries that bind do so weakly or less than the wild type.

Consider “USP7 (ubiquitin specific protease 7) (from UniProt Q93009 1-1102) (enzyme)”, for which the binding result is listed as “binds” in the assay with DNMT1 and “binds weakly” with UHRF1.
